# Test results as given in article PMC7933964.
# By UniProt entry, the sequences of proteins in these tests, tags left out.
# UniProt Q61696: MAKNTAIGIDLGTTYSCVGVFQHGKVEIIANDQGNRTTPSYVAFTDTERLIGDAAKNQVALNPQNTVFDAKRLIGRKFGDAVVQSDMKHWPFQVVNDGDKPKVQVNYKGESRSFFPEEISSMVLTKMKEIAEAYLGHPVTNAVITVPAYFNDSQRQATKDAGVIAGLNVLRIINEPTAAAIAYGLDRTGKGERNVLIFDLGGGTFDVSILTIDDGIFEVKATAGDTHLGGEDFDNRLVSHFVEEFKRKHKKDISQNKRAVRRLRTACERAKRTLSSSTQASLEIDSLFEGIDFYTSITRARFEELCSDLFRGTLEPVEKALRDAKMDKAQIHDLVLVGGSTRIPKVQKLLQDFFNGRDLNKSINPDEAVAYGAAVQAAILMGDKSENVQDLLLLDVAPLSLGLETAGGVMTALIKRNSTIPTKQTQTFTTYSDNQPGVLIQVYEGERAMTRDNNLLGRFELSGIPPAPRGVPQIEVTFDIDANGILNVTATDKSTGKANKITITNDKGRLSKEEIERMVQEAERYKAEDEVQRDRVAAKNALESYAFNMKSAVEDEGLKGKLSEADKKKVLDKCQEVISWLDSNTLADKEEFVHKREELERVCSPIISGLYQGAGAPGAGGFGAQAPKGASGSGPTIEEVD
# These are yes or no findings as the source states them, for the method shown. In cells and extracts the contact can be indirect. Here binding means that the protein was enriched with, or labelled near, the bait; the list need not be complete. For some assays here: No binding means not detected with the bait.
# Key:
# Testicular receptor 4 [1] = target: T1, Testicular receptor 4 (UniProt P49117); assay: affinity purification with mass spectrometry; immunoprecipitation of TR4 combined with LC-MS/MS; the sample of cells not treated with bexarotene; no methods given
# T1 sequence: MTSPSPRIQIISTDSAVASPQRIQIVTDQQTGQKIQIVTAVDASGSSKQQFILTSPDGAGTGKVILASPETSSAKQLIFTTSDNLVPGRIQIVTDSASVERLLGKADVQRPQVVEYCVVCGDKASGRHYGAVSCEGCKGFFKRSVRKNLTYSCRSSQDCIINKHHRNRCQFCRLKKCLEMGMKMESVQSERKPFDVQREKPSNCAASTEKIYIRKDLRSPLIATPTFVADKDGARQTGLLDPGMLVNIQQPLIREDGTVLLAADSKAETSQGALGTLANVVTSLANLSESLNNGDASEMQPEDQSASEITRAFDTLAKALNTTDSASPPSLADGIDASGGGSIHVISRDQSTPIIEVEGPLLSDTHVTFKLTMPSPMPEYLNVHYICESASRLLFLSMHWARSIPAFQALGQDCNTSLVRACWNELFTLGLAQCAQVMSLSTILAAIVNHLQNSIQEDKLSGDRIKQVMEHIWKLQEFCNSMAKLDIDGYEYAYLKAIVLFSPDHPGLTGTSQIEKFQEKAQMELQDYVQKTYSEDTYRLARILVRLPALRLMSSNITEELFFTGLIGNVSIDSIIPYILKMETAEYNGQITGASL
# Testicular receptor 4 [2] = target: T1, Testicular receptor 4; assay: affinity purification with mass spectrometry; immunoprecipitation of TR4 combined with LC-MS/MS; cells treated with and without bexarotene; no methods given
substance,measurement,setting,value
heat shock 70 kD protein 1A (from UniProt Q61696 1-641),binding,Testicular receptor 4 [1],no binding (only cells without bexarotene)
same,binding,Testicular receptor 4 [2],binds
